According to the supplement of paper PMC10735217:
The other results are listed elsewhere or left out. Single values are uncertain here, since repeats match poorly.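 The human kidney-derived cells carry a stably integrated construct of eight TEAD-binding elements driving luciferase, read by luminescence in a drug-repurposing library screen. A compound counts as a hit when its signal is more than five robust Z scores above the plate mean.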

Tested on: HEK293A TEAD-LUC reporter
Experiment: TEAD-luciferase reporter activity (YAP activation), robust Z score vs plate; higher = stronger YAP/TEAD activation
Settings: 24 h

Structure (SMILES): COC1=C[C@@H]2[C@@H]3Cc4ccc(OC)c(O)c4[C@]2(CCN3C)CC1=O
- TEAD-luciferase reporter activity (compound concentration: 200 nM): inactive: 0.122
- TEAD-luciferase reporter activity (compound concentration: 2 uM): inactive: -0.458
- TEAD-luciferase reporter activity (compound concentration: 10 uM): inactive: -0.593

Structure (SMILES): CC(C)=CCN(c1ccc(CCC(C)(C)C)cc1)C1CCN(Cc2ccc(N(C)C)cc2)CC1
- TEAD-luciferase reporter activity (compound concentration: 200 nM): inactive: 0.594
- TEAD-luciferase reporter activity (compound concentration: 2 uM): inactive: 2.62
- TEAD-luciferase reporter activity (compound concentration: 10 uM): active: 5.73

Structure (SMILES): CC(=O)O[C@H]1[C@@H](OC(C)=O)C[C@H](O[C@H]2[C@@H](OC(C)=O)C[C@H](O[C@H]3[C@@H](OC(C)=O)C[C@H](O[C@H]4CC[C@@]5(C)[C@H](CC[C@@H]6[C@@H]5C[C@@H](OC(C)=O)[C@]5(C)[C@@H](C7=CC(=O)OC7)CC[C@]65O)C4)O[C@@H]3C)O[C@@H]2C)O[C@@H]1C [Digoxin, Derivative of]
- TEAD-luciferase reporter activity (compound concentration: 200 nM): inactive: -0.492
- TEAD-luciferase reporter activity (compound concentration: 2 uM): inactive: 1.37
- TEAD-luciferase reporter activity (compound concentration: 10 uM): inactive: 4.38

Structure (SMILES): O=c1c2cccc3c2c(cn1C1CN2CCC1CC2)CCC3 (centres undefined)
- TEAD-luciferase reporter activity (compound concentration: 200 nM): inactive: -1.63
- TEAD-luciferase reporter activity (compound concentration: 2 uM): inactive: 1.13
- TEAD-luciferase reporter activity (compound concentration: 10 uM): inactive: -0.396

Structure (SMILES): CN1[C@H]2C[C@H](OC(=O)[C@H](CO)c3ccccc3)C[C@@H]1[C@@H](O)C2 [Anisodamine]
- TEAD-luciferase reporter activity (compound concentration: 200 nM): inactive: -0.236
- TEAD-luciferase reporter activity (compound concentration: 2 uM): inactive: 0.586
- TEAD-luciferase reporter activity (compound concentration: 10 uM): active: 5.46

Structure (SMILES): O=C(O)CNC(=O)C1C(=O)N(C2CCCCC2)C(=O)N(C2CCCCC2)C1=O [Daprodustat]
- TEAD-luciferase reporter activity (compound concentration: 200 nM): inactive: -1.29
- TEAD-luciferase reporter activity (compound concentration: 2 uM): inactive: -1.27
- TEAD-luciferase reporter activity (compound concentration: 10 uM): inactive: 0.303

Structure (SMILES): O=S(=O)(O)[O][Pt]1([OH])[NH][C@@H]2CCCC[C@H]2[NH]1
- TEAD-luciferase reporter activity (compound concentration: 200 nM): inactive: 0.289
- TEAD-luciferase reporter activity (compound concentration: 2 uM): inactive: -0.315
- TEAD-luciferase reporter activity (compound concentration: 10 uM): inactive: -1.01

Structure (SMILES): COc1cc2c(cc1OC)-c1c(OC)c(OC)cc3c1[C@H](C2)N(C)CC3 [glaucine]
- TEAD-luciferase reporter activity (compound concentration: 200 nM): inactive: -1.87
- TEAD-luciferase reporter activity (compound concentration: 2 uM): inactive: -1.46
- TEAD-luciferase reporter activity (compound concentration: 10 uM): inactive: -0.00582

Structure (SMILES): COc1ccc(CCN2CCC(Nc3nc4ccccc4n3Cc3ccc(F)cc3)CC2)cc1 [astemizole]
- TEAD-luciferase reporter activity (compound concentration: 200 nM): inactive: 0.245
- TEAD-luciferase reporter activity (compound concentration: 2 uM): inactive: 1.23
- TEAD-luciferase reporter activity (compound concentration: 10 uM): inactive: 2.74

Structure (SMILES): Cc1c[nH]c2c1[C@@]13C[C@@H]1CN(C(=O)c1cc4cc(NC(=O)c5cc6ccccc6o5)ccc4[nH]1)C3=CC2=O
- TEAD-luciferase reporter activity (compound concentration: 200 nM): active: 6.44
- TEAD-luciferase reporter activity (compound concentration: 2 uM): inactive: -1.02
- TEAD-luciferase reporter activity (compound concentration: 10 uM): inactive: -1.07

Structure (SMILES): CCc1c(C(=O)C(N)=O)c2c(OCC(=O)OC)cccc2n1Cc1ccccc1 [Varespladib methyl]
- TEAD-luciferase reporter activity (compound concentration: 200 nM): inactive: 1.34
- TEAD-luciferase reporter activity (compound concentration: 2 uM): inactive: -1.25
- TEAD-luciferase reporter activity (compound concentration: 10 uM): inactive: 0.303

Structure (SMILES): COP(=S)(OC)SCN1C(=O)c2ccccc2C1=O
- TEAD-luciferase reporter activity (compound concentration: 200 nM): inactive: -0.441
- TEAD-luciferase reporter activity (compound concentration: 2 uM): inactive: 3
- TEAD-luciferase reporter activity (compound concentration: 10 uM): active: 7.78

Structure (SMILES): CC1Cc2cc3c(cc2C(c2ccc(N)cc2)=NN1)OCO3 (centres undefined)
- TEAD-luciferase reporter activity (compound concentration: 200 nM): inactive: -0.285
- TEAD-luciferase reporter activity (compound concentration: 2 uM): inactive: -0.282
- TEAD-luciferase reporter activity (compound concentration: 10 uM): inactive: 1.85
